# Measured values from PubChem BioAssay AID2685 (National Center for Advancing Translational Sciences (NCATS), 2010).
# Some of the results follow. These are further read-outs of the screen, such as a control signal, another cell line or another target. No call is given for them. Most of these compounds were active or inconclusive in the main read-out, so they are no random draw. Potencies come from curve fits of mixed quality, noted in brackets.
# Test: qHTS Assay for Lipid Storage Modulators in Drosophila S3 Cells;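 as to cell number change: cells counted by Cell Tracker Red CMTPX staining in the red channel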
# Details: BODIPY lipid droplet fluorescence, 18-24 h; for cell number change: measured here: cell count max response, cells fed with added oleic acid
# Procedure, shortened: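 Drosophila S3 cells got compounds at several concentrations plus oleic acid (400 uM solution). Laser-scanning cytometry with 488 nm excitation read lipid droplets at 500-530 nm and cells at 575-640 nm. Percent activity was relative to 20 uM Triacsin C.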
# [1] = measured here: cell number channel AC50, cells fed with added oleic acid
# [2] = measured here: lipid fluorescence (Fed channel) AC50, cells fed with added oleic acid
smiles,measurement,setting,value
COC(=O)Cc1ccc2sc(-c3ccccc3)nc2c1,cell number change,,52.6%
same,AC50,[1],"29.1 µM [rising, single point]"
O=C(COC(=O)C1CCN(c2ccc(C(F)(F)F)cn2)CC1)Nc1ccc(F)cc1[N+](=O)[O-],cell number change,,24.5%
COc1cc2c(cc1OC)-c1cc3ccc4c(c3c[n+]1CC2)OCO4,cell number change,,8.65%
same,AC50,[2],"1.03 µM [rising, full curve, poor fit]"
O=C(CCNS(=O)(=O)c1ccccc1C(F)(F)F)NCc1ccc2c(c1)OCO2,AC50,[1],"1.64 µM [rising, partial curve]"
same,AC50,[2],"1.46 µM [rising, partial curve, poor fit]"
Cc1cc(C(=O)NCC(=O)OCC(=O)N(C)C2CCCCC2)ccc1[N+](=O)[O-],cell number change,,10.5%
NC(=O)c1c(NC(=O)C(=O)N2CCOCC2)sc2c1CCC2,cell number change,,-11.1%
same,AC50,[2],"5.17 µM [rising, single point]"
CS(=O)(=O)N(CC(=O)O)c1cc(Cl)cc(Cl)c1,cell number change,,-18.8%
O=C(CN1CCN(Cc2ccc(Cl)cc2)CC1)N/N=C/C=C/c1ccccc1[N+](=O)[O-],cell number change,,44.6%
same,AC50,[1],"2.91 µM [rising, partial curve]"
Cn1nc(CC(=O)NCc2ccc(F)cc2)c2ccccc2c1=O,cell number change,,-18.6%
same,AC50,[2],"29.1 µM [falling, single point]"
Cc1ccccc1S(=O)Cc1ccc(C(=O)NCCN2CCOCC2)o1 (stereo not drawn),cell number change,,1.47%
same,AC50,[2],"4.11 µM [rising, full curve]"
CCN1CCN(Cc2ccc3c(c2)Cc2ccccc2-3)CC1,cell number change,,10.8%
O=C(CCCc1nc(-c2ccccc2)no1)NC1CCCC1,cell number change,,-2.61%
COC(=O)C1C/C(=N\NS(=O)(=O)c2ccc(C)cc2)c2ccsc2C1 (stereo not drawn),cell number change,,2.51%
same,AC50,[2],"11.6 µM [rising, single point]"
CCC(=O)N1CCc2cc(S(=O)(=O)N3CCN(c4cc(C)ccc4C)CC3)ccc21,cell number change,,-1.7%
same,AC50,[2],"29.1 µM [rising, single point]"
CN(CCO)c1cnccn1,cell number change,,-52%
same,AC50,[1],"29.1 µM [falling, single point]"
same,AC50,[2],"23.1 µM [falling, single point]"
Cc1cc(C)n2nc(SCc3cc(=O)oc4ccc5ccccc5c34)nc2n1,cell number change,,-11.3%
C[C@]12CCC(O)CC1CCC1C2CC[C@]2(C)C(c3cc(C(F)(F)F)n[nH]3)CCC12 (stereo partly drawn),cell number change,,-0.863%
same,AC50,[2],"2.06 µM [rising, partial curve]"
O=C1CN(C(=O)NCC(=O)N2CCCC2)c2ccccc2N1,cell number change,,7.93%
COc1ccccc1Cc1noc(COc2cccc(C)c2C)n1,AC50,[1],"3.66 µM [rising, single point]"
CC(C)(C)SC(=O)CC1NS(=O)(=O)OCC1NC(=O)OCC(Cl)(Cl)Cl (stereo not drawn),cell number change,,-10.7%
same,AC50,[2],"29.1 µM [rising, single point]"
COc1ccc(Sc2ncnc3onc(C)c23)cc1,cell number change,,-40.2%
same,AC50,[1],"1.3 µM [falling, full curve, poor fit]"
same,AC50,[2],"1.03 µM [falling, full curve]"
S=C(NCCc1ccccc1)N1CCN(C(c2ccccc2)c2ccccc2)CC1,cell number change,,15.3%
same,AC50,[1],"0.92 µM [falling, full curve]"
C[C@H](NC(=O)c1ccco1)C(=O)NCc1cccs1,cell number change,,-8.93%
same,AC50,[2],"0.164 µM [rising, full curve, poor fit]"
C=CCn1c(=O)/c(=C\c2ccccn2)s/c1=C(/C#N)C(=O)NCC1CCCO1 (stereo not drawn),AC50,[2],"0.58 µM [rising, single point]"
COCCNc1c2c(c(C#N)c3nc4ccccc4n13)CCCC2,cell number change,,11.2%
same,AC50,[1],"0.00411 µM [rising, full curve, poor fit]"
O=C(NC1CCCCCC1)c1ccc(CS(=O)(=O)Cc2ccc(F)cc2)o1,cell number change,,-21.5%
same,AC50,[2],"23.1 µM [falling, partial curve]"
COCCCn1c(=O)/c(=C\c2cccc(OC)c2OC)s/c1=C(/C#N)C(=O)Nc1ccc(C(=O)O)cc1,cell number change,,19.7%
same,AC50,[2],"2.06 µM [falling, single point]"
Cc1cc(NS(=O)(=O)c2ccc(NC(=O)C(CC(C)C)N3C(=O)c4ccccc4C3=O)cc2)nc(C)n1 (stereo not drawn),cell number change,,-20.6%
same,AC50,[2],"16.4 µM [rising, single point]"
O=C1C=C(c2ccccc2Oc2ccccc2)C[C@@H](c2ccc3c(c2)OCO3)C1,cell number change,,1.1%
same,AC50,[2],"25.9 µM [falling, single point]"
Cc1ccc(C)c(OCc2cc(C(=O)N3CCC(N4CCCC(O)C4)CC3)no2)c1 (stereo not drawn),cell number change,,22.9%
same,AC50,[2],"29.1 µM [falling, single point]"
O=C(CNS(=O)(=O)Cc1ccccc1)NCc1ccccc1,cell number change,,-21.1%
same,AC50,[2],"0.1 µM [rising, full curve, poor fit]"
CC1OC(Nc2ccc(N=Nc3ccccc3)cc2)C(O)C(O)C1O (stereo not drawn),AC50,[1],"0.517 µM [rising, single point]"
CCCCOc1ccc(C(=O)Nc2ccc(N3CCN(C(C)=O)CC3)cc2)cc1,cell number change,,2.84%
same,AC50,[1],"6.51 µM [rising, single point]"
same,AC50,[2],"2.06 µM [rising, full curve]"
Cc1c(C(=O)N2CCN(S(=O)(=O)c3ccc(F)cc3)CC2)oc2ccccc12,AC50,[2],"0.651 µM [rising, full curve, poor fit]"
Cc1ccc2nc(SCC(=O)NCc3ccco3)[nH]c2c1,cell number change,,60.2%
same,AC50,[1],"18.4 µM [rising, partial curve]"
O=C(OCC(=O)N1CCOCC1)c1ccc(Cl)nc1,cell number change,,40.3%
same,AC50,[2],"25.9 µM [rising, partial curve, poor fit]"
COc1cccc(N2CCN(C(=O)c3ccc(=O)oc3)CC2C)c1 (stereo not drawn),AC50,[1],"1.16 µM [falling, single point]"
same,AC50,[2],"0.92 µM [falling, single point]"
O=S(=O)(c1ccc2nc(Nc3ccccc3)ccc2c1)N1CCCCC1,cell number change,,12.6%
same,AC50,[1],"0.82 µM [rising, full curve]"
same,AC50,[2],"0.651 µM [rising, full curve, poor fit]"
COc1ccc(CCC(=O)Nc2ccc(Cn3ccnc3)cc2)cc1,cell number change,,9.8%
CCOc1ccc(NC(=O)COC(=O)c2c(OC)cccc2OC)cc1,cell number change,,-13%
same,AC50,[2],"0.82 µM [rising, partial curve, poor fit]"
CCCOc1ccc2[nH]cc(C(=O)O)c(=O)c2c1,cell number change,,35.9%
same,AC50,[1],"23.1 µM [rising, single point]"
COc1ccccc1C(=O)NCCC(=O)N(C)CC(=O)Nc1ccc(N2CCOCC2)cc1,cell number change,,26.2%
same,AC50,[2],"11.6 µM [rising, partial curve]"
CCOc1ccc(CNC(=O)C(CC)n2nc(C)n3c(cc4occc43)c2=O)cc1OC (stereo not drawn),cell number change,,66.3%
same,AC50,[1],"18.4 µM [rising, single point]"
COC(=O)Nc1nc(-c2cc(Cl)ccc2Cl)cs1,AC50,[1],"6.51 µM [rising, partial curve, poor fit]"
O=C1c2ccccc2C(=O)N1Cc1ccc2c(c1)OCO2,cell number change,,10.8%
same,AC50,[2],"0.164 µM [rising, full curve]"
O=C1c2ccccc2C(O)N1Cc1ccccc1 (stereo not drawn),AC50,[1],"0.103 µM [falling, full curve, poor fit]"
CCc1nnc(NC(=O)c2ccc(S(=O)(=O)N3CCCC3)cc2)s1,cell number change,,-33.3%
same,AC50,[1],"7.31 µM [falling, partial curve, poor fit]"
COc1ccc(N2CCc3c(C)nc4c(OC)cccc4c32)cc1,cell number change,,1.03%
same,AC50,[2],"0.731 µM [rising, partial curve, poor fit]"
CC(C)c1cccc(C(C)C)c1NC(=O)COC(=O)C1=COCCO1,cell number change,,-43.3%
same,AC50,[1],"29.1 µM [falling, single point]"
same,AC50,[2],"29.1 µM [falling, single point]"
CCOc1cccc(CN2CCC(Oc3ccc(C(=O)N4CCCC4)cc3)CC2)c1,cell number change,,20%
same,AC50,[1],"4.11 µM [rising, single point]"
Cc1cc(C(=O)NC2CC(C)(C)Cc3c2cnn3-c2ccccc2)n[nH]1 (stereo not drawn),cell number change,,20.8%
same,AC50,[1],"0.0731 µM [rising, full curve, poor fit]"
CC(C)(C)OC(=O)CNC(=O)c1[nH]cnc1C(=O)NC1CCN(C(=O)OC(C)(C)C)CC1,cell number change,,-3.89%
same,AC50,[2],"0.58 µM [falling, partial curve, poor fit]"
Cc1nn(-c2ccccc2)c(Cl)c1CN(C(=O)CCl)c1cccc2ccccc12,cell number change,,-2.28%
same,AC50,[2],"29.1 µM [falling, single point]"
CC1CCCCN1C(=O)COC(=O)c1n[nH]c2ccccc12 (stereo not drawn),cell number change,,32.3%
same,AC50,[1],"29.1 µM [rising, single point]"
same,AC50,[2],"3.66 µM [rising, full curve]"
Cc1ccc(N(CC(=O)NCC2CCCO2)C(=O)CCC(=O)Nc2nccs2)cc1C (stereo not drawn),cell number change,,6.76%
same,AC50,[2],"2.59 µM [falling, full curve, poor fit]"
CCNC(=O)/C(=C/c1ccc2c(c1)OCO2)NC(=O)c1ccc(Br)cc1,cell number change,,-0.996%
same,AC50,[2],"18.4 µM [rising, partial curve, poor fit]"
COc1cc(S(=O)(=O)NCCCn2ccnc2)ccc1F,cell number change,,12.6%
same,AC50,[2],"5.8 µM [rising, full curve]"
COc1ccccc1-c1nnc(SCC(=O)NCc2c(C)c(Cl)cc(C(C)C)c2O)o1,cell number change,,-54.1%
same,AC50,[1],"29.1 µM [falling, single point]"
same,AC50,[2],"29.1 µM [falling, single point]"
CN(C)S(=O)(=O)N1CCN(C(=O)c2cccc(Br)c2)CC1,cell number change,,-18.7%
same,AC50,[1],"0.00517 µM [falling, full curve, poor fit]"
same,AC50,[2],"3.66 µM [falling, single point]"
Cc1cc(Cl)nc(Cl)c1C(=O)N1CCOCC1,cell number change,,-16.8%

# 6 consecutive entries already listed, quoted:
smiles,measurement,setting,value
Cc1ccccc1S(=O)Cc1ccc(C(=O)NCCN2CCOCC2)o1 (stereo not drawn),AC50,[2],"4.11 µM [rising, full curve]"
CCN1CCN(Cc2ccc3c(c2)Cc2ccccc2-3)CC1,cell number change,,10.8%
O=C(CCCc1nc(-c2ccccc2)no1)NC1CCCC1,cell number change,,-2.61%
COC(=O)C1C/C(=N\NS(=O)(=O)c2ccc(C)cc2)c2ccsc2C1 (stereo not drawn),cell number change,,2.51%
same,AC50,[2],"11.6 µM [rising, single point]"
CCC(=O)N1CCc2cc(S(=O)(=O)N3CCN(c4cc(C)ccc4C)CC3)ccc21,cell number change,,-1.7%
